Test results as given in the supplement of paper PMC12823440, “Inhibitors supercharge kinase turnover through native proteolytic circuits” (Nature, 2025).
Structures can show the parent of a compound that is named as a salt. This is one part of the list. The calls rarely recur for the same compound in another form.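 In K562 cells expressing nanoluciferase-fused kinases, luminescence was recorded at 4 h intervals between 2 and 18 h, normalized as percent of control with DMSO at 100% and a positive control at 0%. A significant (2 sigma) signal drop marks a time point as decreased. The authors' rule for a hit is not shown and takes in more than the number of time points.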

The chains behind the UniProt entries cited, without tags or fusion partners. Where a name states a change or a piece, a line headed by the entry shows the natural chain unless it says otherwise.
UniProt Q9BRS2: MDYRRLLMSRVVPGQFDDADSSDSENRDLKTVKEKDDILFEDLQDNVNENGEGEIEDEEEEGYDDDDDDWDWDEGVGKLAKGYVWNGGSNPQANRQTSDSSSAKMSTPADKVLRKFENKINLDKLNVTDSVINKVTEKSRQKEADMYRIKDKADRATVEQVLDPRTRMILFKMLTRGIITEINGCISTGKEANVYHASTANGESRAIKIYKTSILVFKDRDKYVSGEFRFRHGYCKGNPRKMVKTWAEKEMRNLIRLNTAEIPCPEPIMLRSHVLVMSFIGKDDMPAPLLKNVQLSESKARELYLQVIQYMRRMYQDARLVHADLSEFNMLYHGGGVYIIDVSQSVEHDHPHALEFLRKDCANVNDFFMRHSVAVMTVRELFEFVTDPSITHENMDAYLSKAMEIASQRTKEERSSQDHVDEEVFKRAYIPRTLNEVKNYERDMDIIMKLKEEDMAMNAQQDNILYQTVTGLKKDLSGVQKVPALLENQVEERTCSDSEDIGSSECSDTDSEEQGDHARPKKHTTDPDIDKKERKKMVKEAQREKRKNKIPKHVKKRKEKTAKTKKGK
UniProt Q13546: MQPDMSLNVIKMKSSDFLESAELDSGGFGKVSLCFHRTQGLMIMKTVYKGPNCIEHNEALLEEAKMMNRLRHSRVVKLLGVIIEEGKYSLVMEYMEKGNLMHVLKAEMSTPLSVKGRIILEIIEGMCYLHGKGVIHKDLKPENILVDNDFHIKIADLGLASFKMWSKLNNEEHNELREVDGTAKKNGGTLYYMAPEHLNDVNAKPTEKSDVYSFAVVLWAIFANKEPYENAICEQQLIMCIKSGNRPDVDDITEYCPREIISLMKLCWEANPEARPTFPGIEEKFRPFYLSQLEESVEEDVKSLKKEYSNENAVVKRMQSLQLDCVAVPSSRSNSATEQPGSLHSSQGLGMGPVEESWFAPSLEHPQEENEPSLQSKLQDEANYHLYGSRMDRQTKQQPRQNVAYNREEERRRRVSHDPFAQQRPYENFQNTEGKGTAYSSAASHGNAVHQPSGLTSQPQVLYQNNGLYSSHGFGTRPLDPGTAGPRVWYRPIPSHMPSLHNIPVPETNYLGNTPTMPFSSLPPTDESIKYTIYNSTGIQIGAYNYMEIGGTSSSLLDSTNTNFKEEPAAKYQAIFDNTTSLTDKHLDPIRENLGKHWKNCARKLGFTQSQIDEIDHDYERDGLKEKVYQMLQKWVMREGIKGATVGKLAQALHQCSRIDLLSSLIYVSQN
UniProt Q9NYA1, whole entry: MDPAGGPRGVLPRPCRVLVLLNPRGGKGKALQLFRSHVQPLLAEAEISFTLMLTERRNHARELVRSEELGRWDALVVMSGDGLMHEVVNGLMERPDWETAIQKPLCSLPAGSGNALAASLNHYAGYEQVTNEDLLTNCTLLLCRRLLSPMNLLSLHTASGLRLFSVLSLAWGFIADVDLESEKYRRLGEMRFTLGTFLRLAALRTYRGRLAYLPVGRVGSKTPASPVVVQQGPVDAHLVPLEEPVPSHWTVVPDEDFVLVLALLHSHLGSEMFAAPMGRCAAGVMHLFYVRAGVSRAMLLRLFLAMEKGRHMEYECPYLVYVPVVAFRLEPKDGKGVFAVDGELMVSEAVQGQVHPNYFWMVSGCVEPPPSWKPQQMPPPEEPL
UniProt Q9Y6E0: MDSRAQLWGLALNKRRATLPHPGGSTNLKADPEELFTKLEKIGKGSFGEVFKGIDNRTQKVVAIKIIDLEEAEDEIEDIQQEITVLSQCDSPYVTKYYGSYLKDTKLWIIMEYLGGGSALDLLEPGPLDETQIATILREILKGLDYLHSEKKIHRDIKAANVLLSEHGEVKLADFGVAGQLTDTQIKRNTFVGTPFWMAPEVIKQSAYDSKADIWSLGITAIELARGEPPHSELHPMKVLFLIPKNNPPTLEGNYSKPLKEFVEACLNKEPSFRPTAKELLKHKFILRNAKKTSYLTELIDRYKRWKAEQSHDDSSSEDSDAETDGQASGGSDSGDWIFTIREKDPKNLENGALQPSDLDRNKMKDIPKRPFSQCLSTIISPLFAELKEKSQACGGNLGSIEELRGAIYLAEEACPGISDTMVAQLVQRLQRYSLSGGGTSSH
UniProt Q15208: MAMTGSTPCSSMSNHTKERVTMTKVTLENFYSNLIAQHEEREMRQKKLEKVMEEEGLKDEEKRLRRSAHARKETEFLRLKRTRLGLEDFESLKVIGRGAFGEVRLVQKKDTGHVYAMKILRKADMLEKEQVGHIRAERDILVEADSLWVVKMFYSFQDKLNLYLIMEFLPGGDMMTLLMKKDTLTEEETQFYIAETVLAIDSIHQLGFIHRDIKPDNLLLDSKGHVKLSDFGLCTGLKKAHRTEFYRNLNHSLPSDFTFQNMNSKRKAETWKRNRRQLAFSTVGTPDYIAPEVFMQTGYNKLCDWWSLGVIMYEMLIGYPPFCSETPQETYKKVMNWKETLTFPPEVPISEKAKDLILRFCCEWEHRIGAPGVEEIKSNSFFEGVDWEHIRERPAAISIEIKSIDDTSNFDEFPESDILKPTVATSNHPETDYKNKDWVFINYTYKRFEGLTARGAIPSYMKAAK
UniProt P42680: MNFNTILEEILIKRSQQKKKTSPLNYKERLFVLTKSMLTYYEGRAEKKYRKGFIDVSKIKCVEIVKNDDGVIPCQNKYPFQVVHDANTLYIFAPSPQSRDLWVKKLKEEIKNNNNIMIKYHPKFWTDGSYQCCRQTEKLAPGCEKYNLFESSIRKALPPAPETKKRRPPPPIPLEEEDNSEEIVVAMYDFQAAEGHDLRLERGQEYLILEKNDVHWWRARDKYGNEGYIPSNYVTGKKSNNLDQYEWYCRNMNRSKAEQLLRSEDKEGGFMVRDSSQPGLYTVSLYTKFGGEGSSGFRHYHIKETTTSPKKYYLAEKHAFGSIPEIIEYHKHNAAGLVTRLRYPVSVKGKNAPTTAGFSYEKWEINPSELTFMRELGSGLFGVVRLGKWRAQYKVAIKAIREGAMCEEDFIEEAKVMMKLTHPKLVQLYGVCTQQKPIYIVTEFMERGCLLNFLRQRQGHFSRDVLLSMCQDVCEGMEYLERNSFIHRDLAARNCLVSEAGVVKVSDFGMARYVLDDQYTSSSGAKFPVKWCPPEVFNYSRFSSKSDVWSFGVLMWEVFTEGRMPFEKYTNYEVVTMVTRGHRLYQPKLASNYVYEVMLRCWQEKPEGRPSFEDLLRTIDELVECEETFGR
UniProt P29597: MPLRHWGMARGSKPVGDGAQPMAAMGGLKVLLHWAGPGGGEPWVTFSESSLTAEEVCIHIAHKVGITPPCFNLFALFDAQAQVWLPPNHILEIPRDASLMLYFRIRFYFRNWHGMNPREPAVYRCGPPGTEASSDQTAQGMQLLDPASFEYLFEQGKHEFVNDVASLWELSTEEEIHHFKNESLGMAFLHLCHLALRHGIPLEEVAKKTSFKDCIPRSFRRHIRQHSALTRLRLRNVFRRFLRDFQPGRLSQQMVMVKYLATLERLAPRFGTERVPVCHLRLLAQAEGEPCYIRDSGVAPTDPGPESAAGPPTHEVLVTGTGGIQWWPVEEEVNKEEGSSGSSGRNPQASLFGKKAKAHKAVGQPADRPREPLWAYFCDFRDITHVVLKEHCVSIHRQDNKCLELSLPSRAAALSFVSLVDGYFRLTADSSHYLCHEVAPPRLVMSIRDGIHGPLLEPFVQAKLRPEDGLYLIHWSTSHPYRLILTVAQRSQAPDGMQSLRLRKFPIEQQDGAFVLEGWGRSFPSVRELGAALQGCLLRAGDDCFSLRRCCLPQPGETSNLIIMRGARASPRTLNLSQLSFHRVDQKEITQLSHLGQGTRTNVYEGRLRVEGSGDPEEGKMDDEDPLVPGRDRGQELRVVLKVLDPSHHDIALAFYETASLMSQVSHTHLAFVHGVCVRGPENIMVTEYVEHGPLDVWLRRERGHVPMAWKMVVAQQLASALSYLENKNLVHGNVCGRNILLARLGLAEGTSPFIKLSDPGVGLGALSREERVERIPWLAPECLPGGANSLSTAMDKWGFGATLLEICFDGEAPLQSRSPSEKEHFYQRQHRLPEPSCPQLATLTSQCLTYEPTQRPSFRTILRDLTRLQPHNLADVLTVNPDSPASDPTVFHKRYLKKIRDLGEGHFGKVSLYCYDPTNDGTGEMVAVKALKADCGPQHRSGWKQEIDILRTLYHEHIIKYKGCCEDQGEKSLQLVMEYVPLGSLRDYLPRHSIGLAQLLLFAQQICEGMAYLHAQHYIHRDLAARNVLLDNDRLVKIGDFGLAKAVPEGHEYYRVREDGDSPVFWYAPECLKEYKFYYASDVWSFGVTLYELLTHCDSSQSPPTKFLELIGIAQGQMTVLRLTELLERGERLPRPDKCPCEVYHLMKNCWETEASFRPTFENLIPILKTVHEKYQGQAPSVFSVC
UniProt Q6PHR2: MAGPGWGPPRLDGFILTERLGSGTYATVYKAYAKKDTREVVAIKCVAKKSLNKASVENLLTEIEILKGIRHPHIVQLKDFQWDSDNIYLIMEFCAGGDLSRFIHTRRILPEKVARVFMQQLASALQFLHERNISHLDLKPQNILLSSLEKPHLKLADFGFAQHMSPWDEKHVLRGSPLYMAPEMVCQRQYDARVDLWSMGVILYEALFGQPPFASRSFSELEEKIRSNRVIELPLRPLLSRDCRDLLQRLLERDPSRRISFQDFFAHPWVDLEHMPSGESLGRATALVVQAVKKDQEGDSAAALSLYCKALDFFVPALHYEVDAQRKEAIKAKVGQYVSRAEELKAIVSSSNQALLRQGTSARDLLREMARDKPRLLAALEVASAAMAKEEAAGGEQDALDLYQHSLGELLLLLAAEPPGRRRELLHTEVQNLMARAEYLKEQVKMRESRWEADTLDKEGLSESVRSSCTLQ
UniProt P07947, whole entry, looked up: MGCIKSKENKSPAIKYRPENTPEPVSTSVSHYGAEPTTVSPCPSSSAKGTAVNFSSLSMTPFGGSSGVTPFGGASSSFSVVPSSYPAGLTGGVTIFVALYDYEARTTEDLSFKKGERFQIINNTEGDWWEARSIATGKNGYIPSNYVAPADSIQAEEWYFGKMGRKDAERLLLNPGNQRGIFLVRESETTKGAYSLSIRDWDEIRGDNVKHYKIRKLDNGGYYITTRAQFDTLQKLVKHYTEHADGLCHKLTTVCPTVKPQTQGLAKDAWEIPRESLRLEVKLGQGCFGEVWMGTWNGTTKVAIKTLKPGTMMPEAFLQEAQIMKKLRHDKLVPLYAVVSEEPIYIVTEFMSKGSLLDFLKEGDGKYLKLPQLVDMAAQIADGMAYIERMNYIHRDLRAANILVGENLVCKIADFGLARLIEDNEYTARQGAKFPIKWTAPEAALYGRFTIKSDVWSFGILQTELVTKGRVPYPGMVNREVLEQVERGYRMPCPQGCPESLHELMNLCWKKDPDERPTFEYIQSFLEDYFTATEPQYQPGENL
UniProt P43403: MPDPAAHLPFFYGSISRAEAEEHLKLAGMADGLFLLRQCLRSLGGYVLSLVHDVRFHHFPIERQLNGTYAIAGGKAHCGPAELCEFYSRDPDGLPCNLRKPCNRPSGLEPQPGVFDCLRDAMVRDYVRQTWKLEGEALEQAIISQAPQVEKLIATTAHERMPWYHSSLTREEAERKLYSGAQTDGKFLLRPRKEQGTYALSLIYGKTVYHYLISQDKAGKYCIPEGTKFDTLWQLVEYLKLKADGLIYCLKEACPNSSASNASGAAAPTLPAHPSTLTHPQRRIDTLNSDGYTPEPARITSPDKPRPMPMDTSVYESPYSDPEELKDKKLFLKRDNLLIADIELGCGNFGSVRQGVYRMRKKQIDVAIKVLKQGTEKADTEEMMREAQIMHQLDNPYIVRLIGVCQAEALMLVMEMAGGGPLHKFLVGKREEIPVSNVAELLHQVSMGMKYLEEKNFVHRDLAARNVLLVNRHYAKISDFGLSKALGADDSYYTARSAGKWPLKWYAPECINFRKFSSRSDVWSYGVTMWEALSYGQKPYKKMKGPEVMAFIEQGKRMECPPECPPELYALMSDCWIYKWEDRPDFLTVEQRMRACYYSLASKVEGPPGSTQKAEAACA
UniProt P31749: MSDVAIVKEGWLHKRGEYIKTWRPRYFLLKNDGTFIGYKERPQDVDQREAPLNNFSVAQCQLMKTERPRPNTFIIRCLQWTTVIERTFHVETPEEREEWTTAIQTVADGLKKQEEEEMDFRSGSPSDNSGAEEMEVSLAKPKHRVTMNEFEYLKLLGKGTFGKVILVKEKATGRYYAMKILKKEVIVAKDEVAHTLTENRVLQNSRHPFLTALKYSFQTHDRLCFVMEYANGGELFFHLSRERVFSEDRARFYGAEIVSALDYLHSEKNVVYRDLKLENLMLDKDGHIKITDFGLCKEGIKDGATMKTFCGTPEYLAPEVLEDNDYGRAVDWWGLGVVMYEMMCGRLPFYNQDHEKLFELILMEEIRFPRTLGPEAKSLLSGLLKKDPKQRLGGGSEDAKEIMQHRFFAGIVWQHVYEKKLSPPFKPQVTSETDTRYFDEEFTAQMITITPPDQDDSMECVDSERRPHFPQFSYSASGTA

Legend:
Details in all cases: K562; 2-18 h
RET = RET (UniProt P07949); experiment: kinase-Nluc reporter destabilization hit call (1 = scored as downregulated) (binary); higher = compound decreases kinase abundance
[1] = target: RET_M918T (clone: RET_mut) (UniProt P07949); experiment: as above
RIOK1 = RIOK1 (UniProt Q9BRS2); experiment: as above
RIPK1 = RIPK1 (UniProt Q13546); experiment: as above
RIPK2 = RIPK2 (UniProt O43353); experiment: as above
ROR2 = ROR2 (UniProt Q01974); experiment: as above
RPS6KA1 = RPS6KA1 (UniProt Q15418); experiment: as above
SPHK1 = SPHK1 (UniProt Q9NYA1); experiment: as above
SRC = SRC (UniProt P12931); experiment: as above
STK24 = STK24 (UniProt Q9Y6E0); experiment: as above
STK38 = STK38 (UniProt Q15208); experiment: as above
SYK = SYK (UniProt P43405); experiment: as above
TEC = TEC (UniProt P42680); experiment: as above
TYK2 = TYK2 (UniProt P29597); experiment: as above
ULK3 = ULK3 (UniProt Q6PHR2); experiment: as above
YES1 = YES1 (UniProt P07947); experiment: as above
ZAK = ZAK (UniProt Q9NYL2); experiment: as above
ZAP70 = ZAP70 (UniProt P43403); experiment: as above
ABL1 = ABL1 (UniProt P00519); experiment: number of time points (of 5) at which kinase-Nluc abundance scored as decreased, DMSO-normalised (count); higher = more persistent destabilization
AKT1 = AKT1 (UniProt P31749); experiment: as above

| Compound | kinase-Nluc reporter destabilization hit call (RET) | kinase-Nluc reporter destabilization hit call [1] | kinase-Nluc reporter destabilization hit call (RIOK1) | kinase-Nluc reporter destabilization hit call (RIPK1) | kinase-Nluc reporter destabilization hit call (RIPK2) | kinase-Nluc reporter destabilization hit call (ROR2) | kinase-Nluc reporter destabilization hit call (RPS6KA1) | kinase-Nluc reporter destabilization hit call (SPHK1) | kinase-Nluc reporter destabilization hit call (SRC) | kinase-Nluc reporter destabilization hit call (STK24) | kinase-Nluc reporter destabilization hit call (STK38) | kinase-Nluc reporter destabilization hit call (SYK) | kinase-Nluc reporter destabilization hit call (TEC) | kinase-Nluc reporter destabilization hit call (TYK2) | kinase-Nluc reporter destabilization hit call (ULK3) | kinase-Nluc reporter destabilization hit call (YES1) | kinase-Nluc reporter destabilization hit call (ZAK) | kinase-Nluc reporter destabilization hit call (ZAP70) | number of time points (ABL1) | number of time points (AKT1) |
| --- | --- | --- | --- | --- | --- | --- | --- | --- | --- | --- | --- | --- | --- | --- | --- | --- | --- | --- | --- | --- |
| CC(O)(C#Cc1ccc2c(c1)N(c1nc(N)ncc1Cl)CC2)c1nccs1 (stereo not given) (2.5 µM) | inactive: 0 | inactive: 0 | inactive: 0 | inactive: 0 | inactive: 0 | inactive: 0 | inactive: 0 | inactive: 0 | inactive: 0 | inactive: 0 | inactive: 0 | inactive: 0 | inactive: 0 | inactive: 0 | inactive: 0 | inactive: 0 | inactive: 0 | inactive: 0 | 0 | 0 |
| CN1CCN(c2cc(-c3ccncc3)c(-c3ccc4ccccc4c3)nn2)CC1 (10 µM) | inactive: 0 | inactive: 0 | inactive: 0 | inactive: 0 | inactive: 0 | inactive: 0 | inactive: 0 | inactive: 0 | inactive: 0 | inactive: 0 | inactive: 0 | inactive: 0 | inactive: 0 | inactive: 0 | inactive: 0 | inactive: 0 | inactive: 0 | inactive: 0 | 0 | 0 |
| N#Cc1ccc2ncnc(NCCc3ccccc3)c2c1 [Senexin A] (10 µM) | inactive: 0 | inactive: 0 | inactive: 0 | inactive: 0 | inactive: 0 | inactive: 0 | inactive: 0 | inactive: 0 | inactive: 0 | inactive: 0 | inactive: 0 | inactive: 0 | inactive: 0 | inactive: 0 | inactive: 0 | inactive: 0 | inactive: 0 | inactive: 0 | 0 | 0 |
| O=C1NC(=O)/C(=C\c2c[nH]c(=O)c(-c3ccc(N4CCNCC4)nc3)c2)S1 [Protein kinase inhibitors 1 hydrochloride] (10 µM) | inactive: 0 | inactive: 0 | inactive: 0 | inactive: 0 | inactive: 0 | inactive: 0 | inactive: 0 | inactive: 0 | inactive: 0 | inactive: 0 | inactive: 0 | inactive: 0 | inactive: 0 | inactive: 0 | inactive: 0 | inactive: 0 | inactive: 0 | inactive: 0 | 0 | 0 |
| Cc1cc([C@@H](C)Nc2ccccc2C(=O)O)c2nc(N3CCOCC3)cc(=O)n2c1 (10 µM) | inactive: 0 | inactive: 0 | inactive: 0 | inactive: 0 | inactive: 0 | inactive: 0 | inactive: 0 | inactive: 0 | inactive: 0 | inactive: 0 | inactive: 0 | inactive: 0 | inactive: 0 | inactive: 0 | inactive: 0 | inactive: 0 | inactive: 0 | inactive: 0 | 0 | 0 |
| Cc1cc(CSc2ccccc2C(=O)NCCNc2ccc(C(F)(F)F)cc2[N+](=O)[O-])on1 (10 µM) | inactive: 0 | inactive: 0 | inactive: 0 | inactive: 0 | inactive: 0 | inactive: 0 | inactive: 0 | inactive: 0 | inactive: 0 | inactive: 0 | inactive: 0 | inactive: 0 | inactive: 0 | inactive: 0 | inactive: 0 | inactive: 0 | inactive: 0 | inactive: 0 | 0 | 0 |
| CC(C)CCN1c2nc(Nc3cc(F)c(O)c(F)c3)ncc2N(C)C(=O)C1C (stereo not given) (2.5 µM) | inactive: 0 | inactive: 0 | inactive: 0 | inactive: 0 | inactive: 0 | inactive: 0 | inactive: 0 | inactive: 0 | inactive: 0 | inactive: 0 | inactive: 0 | inactive: 0 | inactive: 0 | inactive: 0 | inactive: 0 | inactive: 0 | inactive: 0 | inactive: 0 | 0 | 0 |
| Cn1cc(-c2cc(Oc3cc(F)c(NC(=O)C4(C(=O)Nc5ccccc5)CC4)cc3F)ccn2)cn1 (2.5 µM) | inactive: 0 | inactive: 0 | inactive: 0 | inactive: 0 | inactive: 0 | inactive: 0 | inactive: 0 | inactive: 0 | inactive: 0 | inactive: 0 | inactive: 0 | inactive: 0 | inactive: 0 | inactive: 0 | inactive: 0 | inactive: 0 | inactive: 0 | inactive: 0 | 0 | 0 |
| CC(C)=CCC/C(C)=C/CC/C(C)=C/C=C/C(C)=C/C(=O)O [Peretinoin] (10 µM) | inactive: 0 | inactive: 0 | inactive: 0 | inactive: 0 | inactive: 0 | inactive: 0 | inactive: 0 | inactive: 0 | inactive: 0 | inactive: 0 | inactive: 0 | inactive: 0 | inactive: 0 | inactive: 0 | inactive: 0 | inactive: 0 | inactive: 0 | inactive: 0 | 0 | 0 |
| c1nn(C2CCOCC2)cc1Nc1ncc2nnn(-c3ccc4cn[nH]c4c3)c2n1 (10 µM) | inactive: 0 | inactive: 0 | inactive: 0 | inactive: 0 | inactive: 0 | inactive: 0 | inactive: 0 | inactive: 0 | inactive: 0 | inactive: 0 | inactive: 0 | inactive: 0 | inactive: 0 | inactive: 0 | inactive: 0 | inactive: 0 | inactive: 0 | inactive: 0 | 0 | 0 |
| Cc1ccc(NC(=O)Nc2cc(C(F)(F)F)ccc2F)cc1Nc1ccc2c(c1)NC(=O)/C2=C\c1ccc[nH]1 (2.5 µM) | inactive: 0 | inactive: 0 | inactive: 0 | inactive: 0 | inactive: 0 | inactive: 0 | inactive: 0 | inactive: 0 | inactive: 0 | inactive: 0 | inactive: 0 | inactive: 0 | inactive: 0 | inactive: 0 | inactive: 0 | inactive: 0 | inactive: 0 | inactive: 0 | 0 | 0 |
| O=C1Nc2ccc(CN3C(=O)CSC3=O)cc2/C1=C/c1cc(CN2CCOCC2)c[nH]1 (10 µM) | inactive: 0 | inactive: 0 | inactive: 0 | inactive: 0 | inactive: 0 | inactive: 0 | inactive: 0 | inactive: 0 | inactive: 0 | inactive: 0 | inactive: 0 | inactive: 0 | inactive: 0 | inactive: 0 | inactive: 0 | inactive: 0 | inactive: 0 | inactive: 0 | 0 | 0 |
| COc1ccc2c(Oc3ccc4c(C(=O)Nc5ccccc5N)cccc4c3)ccnc2c1 [Chiauranib] (10 µM) | inactive: 0 | inactive: 0 | inactive: 0 | inactive: 0 | inactive: 0 | inactive: 0 | inactive: 0 | inactive: 0 | inactive: 0 | inactive: 0 | inactive: 0 | inactive: 0 | inactive: 0 | inactive: 0 | inactive: 0 | inactive: 0 | inactive: 0 | inactive: 0 | 4 | 0 |
| CC(C)=CC[C@@H](O)C1=CC(=O)c2c(O)ccc(O)c2C1=O [Shikonin] (10 µM) | inactive: 0 | inactive: 0 | inactive: 0 | inactive: 0 | inactive: 0 | inactive: 0 | inactive: 0 | inactive: 0 | inactive: 0 | inactive: 0 | inactive: 0 | inactive: 0 | inactive: 0 | inactive: 0 | inactive: 0 | inactive: 0 | inactive: 0 | inactive: 0 | 0 | 0 |
| C=C1C(=O)[C@@]23[C@H](O)C[C@@H]4C(C)(C)C(=O)CC[C@@]4(C)[C@@H]2CC[C@@H]1[C@H]3O [Glaucocalyxin A] (2.5 µM) | inactive: 0 | inactive: 0 | inactive: 0 | inactive: 0 | inactive: 0 | inactive: 0 | inactive: 0 | inactive: 0 | inactive: 0 | inactive: 0 | inactive: 0 | inactive: 0 | inactive: 0 | inactive: 0 | inactive: 0 | inactive: 0 | inactive: 0 | inactive: 0 | 0 | 0 |
| COCCOc1ccc2c(c1)ncn2-c1ccc2cccc(N3CCC(N)CC3)c2n1 (10 µM) | inactive: 0 | inactive: 0 | inactive: 0 | inactive: 0 | inactive: 0 | inactive: 0 | inactive: 0 | inactive: 0 | inactive: 0 | inactive: 0 | inactive: 0 | inactive: 0 | inactive: 0 | inactive: 0 | inactive: 0 | inactive: 0 | inactive: 0 | inactive: 0 | 4 | 0 |
| Nc1[nH]nc2nc(-c3ccc(NS(=O)(=O)c4cc(Cl)ccc4Cl)cc3)cnc12 (10 µM) | inactive: 0 | inactive: 0 | inactive: 0 | inactive: 0 | inactive: 0 | inactive: 0 | inactive: 0 | inactive: 0 | inactive: 0 | inactive: 0 | inactive: 0 | inactive: 0 | inactive: 0 | inactive: 0 | inactive: 0 | inactive: 0 | inactive: 0 | inactive: 0 | 0 | 0 |
| Cn1ncc(NC(=O)c2nc(-c3c(F)cccc3F)sc2N)c1N1CC[C@@H](N)[C@H](F)CC1 (10 µM) | inactive: 0 | inactive: 0 | inactive: 0 | inactive: 0 | inactive: 0 | inactive: 0 | inactive: 0 | inactive: 0 | inactive: 0 | inactive: 0 | inactive: 0 | inactive: 0 | inactive: 0 | inactive: 0 | inactive: 0 | inactive: 0 | inactive: 0 | inactive: 0 | 3 | 0 |

Whole records from above. Values in the order: kinase-Nluc reporter destabilization hit call (RET)	kinase-Nluc reporter destabilization hit call [1]	kinase-Nluc reporter destabilization hit call (RIOK1)	kinase-Nluc reporter destabilization hit call (RIPK1)	kinase-Nluc reporter destabilization hit call (RIPK2)	kinase-Nluc reporter destabilization hit call (ROR2)	kinase-Nluc reporter destabilization hit call (RPS6KA1)	kinase-Nluc reporter destabilization hit call (SPHK1)	kinase-Nluc reporter destabilization hit call (SRC)	kinase-Nluc reporter destabilization hit call (STK24)	kinase-Nluc reporter destabilization hit call (STK38)	kinase-Nluc reporter destabilization hit call (SYK)	kinase-Nluc reporter destabilization hit call (TEC)	kinase-Nluc reporter destabilization hit call (TYK2)	kinase-Nluc reporter destabilization hit call (ULK3)	kinase-Nluc reporter destabilization hit call (YES1)	kinase-Nluc reporter destabilization hit call (ZAK)	kinase-Nluc reporter destabilization hit call (ZAP70)	number of time points (ABL1)	number of time points (AKT1)
COCCOc1ccc2c(c1)ncn2-c1ccc2cccc(N3CCC(N)CC3)c2n1 (10 µM) is listed as inactive: 0	inactive: 0	inactive: 0	inactive: 0	inactive: 0	inactive: 0	inactive: 0	inactive: 0	inactive: 0	inactive: 0	inactive: 0	inactive: 0	inactive: 0	inactive: 0	inactive: 0	inactive: 0	inactive: 0	inactive: 0	4	0
Cn1ncc(NC(=O)c2nc(-c3c(F)cccc3F)sc2N)c1N1CC[C@@H](N)[C@H](F)CC1 (10 µM) is listed as inactive: 0	inactive: 0	inactive: 0	inactive: 0	inactive: 0	inactive: 0	inactive: 0	inactive: 0	inactive: 0	inactive: 0	inactive: 0	inactive: 0	inactive: 0	inactive: 0	inactive: 0	inactive: 0	inactive: 0	inactive: 0	3	0
